Measured values reported in PubChem BioAssay AID624297 (National Center for Advancing Translational Sciences (NCATS), 2012).
Hit rate of the full screen: of about 340,000 compounds, about 6,200 (1.8%) were called active. Inconclusive results, whose numbers are uncertain, are shown with a selection of clear calls. Calls come from the whole dose curve; as a rule, active = well fitted activation curve with a large enough effect; inconclusive = small, poorly fitted or top-dose-only effect; inactive = no such curve, though single readings can be large or run the other way. Potencies beside an inconclusive call are fits to weak or partial responses and may not hold up.

assay: A quantitative high throughput screen for small molecules that induce DNA re-replication in SW480 colon adenocarcinoma cells.; note: nearly all actives have a fitted effect of over 55% in size; for re-replication activation: % of control where 0% means no effect; conditions: Hoechst DNA content imaging, 48 h; re-replication activation: at 46.1 µM (top of the series) unless noted
Outline: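 Image-based DNA-content assay: after two days of treatment, nuclei were labelled with the DNA dye Hoechst and imaged, and hits were compounds raising the count of nuclei showing high fluorescence intensity.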
Potency is the fitted concentration of half-maximal effect.

Row | Structure (SMILES) | Potency | re-replication activation
1 | CN(C)c1ccc(Nc2ccc([N+](=O)[O-])cn2)cc1 | inconclusive: 0.651 µM [activator, partial curve, poor fit] | –
2 | COC(=O)N/N=C/c1cc(C)n(-c2ccc(Br)cc2)c1C | inactive | –
3 | O=C(CN1CCN(S(=O)(=O)c2ccc3c(c2)OCCO3)CC1)Nc1cccc(F)c1 | inconclusive: 4.61 µM [activator, full curve, poor fit] | –
4 | COc1ccc(-c2csc(NC(=O)c3ccc(S(C)(=O)=O)cc3)n2)cc1 | inconclusive: 3.26 µM [activator, full curve] | –
5 | CCCNC(=O)Cn1cccc1C(=O)c1ccccc1 | inconclusive: 29.1 µM [activator, single point] | –
6 | CN(C(=O)COC(=O)c1cncc(Br)c1)C1CCCCC1 | inconclusive: 23.1 µM [activator, single point] | –
7 | CN(Cc1ccc(Cl)c(Cl)c1)C(=O)C1CSC2(C)CCC(=O)N12 (stereo not given) | inactive | –
8 | CCOCCCNC(=O)C1CCN(Cc2ccc(OCc3ccccc3)c(OC)c2)CC1 | – | inconclusive: -38.1% [activator]
9 | CNC(=O)c1c(NC(=O)CCS(=O)(=O)c2ccc(C)cc2)sc2c1CCN(C(=O)OC)C2 | inconclusive: 11.6 µM [activator, partial curve, poor fit] | –
10 | COc1ccc(OCC(=O)Nc2cc(NC(=O)c3ccco3)ccc2OC)cc1 | inactive | –
11 | CC(=O)c1ccc(NC(=O)c2cn(-c3ccccc3)nc2-c2ccncc2)cc1 | inconclusive: 20.6 µM [activator, partial curve, poor fit] | –
12 | COc1ccccc1-c1nnc(Sc2nc([N+](=O)[O-])nn2C)o1 | inconclusive: 9.2 µM [activator, partial curve] | –
13 | O=C(Cn1cc(C(=O)C(F)(F)F)c2cc(Br)ccc21)N1CCOCC1 | inconclusive: 20.6 µM [activator, partial curve, poor fit] | –
14 | COC(=O)C1=C(C(=O)OC)[C@@H]2Nc3ccccc3[C@@]23C[C@@H](C(=O)OC)N(C(=O)c2cccs2)C3=N1 | inconclusive: 6.51 µM [activator, single point] | –
15 | CC(=O)Nc1ccc(S(=O)(=O)N2CCN(S(=O)(=O)N3CCC(C)CC3)CC2)cc1 | inactive | –
16 | Cc1ccc(CNC(=O)C(C)C2Sc3ccccc3NC2=O)cc1 (stereo not given) | inactive | –
17 | O=C(CCCN1C(=O)c2cccc3cccc(c23)C1=O)N1CCN(Cc2ccc3c(c2)OCO3)CC1 | inconclusive: 20.6 µM [activator, partial curve, poor fit] | –
18 | CCCn1nc(NC(=O)C(C)C)c2cc3cc(OC)ccc3nc21 | active: 9.2 µM | –
19 | COc1cc(/C=N/NC(=S)NC(C)C)ccc1OCC(=O)Nc1c(C)cc(C)cc1C | inconclusive: 10.3 µM [activator, partial curve, poor fit] | –
20 | COC(=O)C(Cc1ccc(O)cc1)NC(=O)C(CC(=O)OC(C)(C)C)NC(=O)OC(C)(C)C (stereo not given) | inactive | –
21 | COc1ccccc1N=c1oc2cc(O)ccc2cc1C(N)=O | active: 11.2 µM | –
22 | Cc1ccccc1C(=O)O/N=C(\N)Cc1cccs1 | inconclusive: 16.4 µM [activator, single point] | –
23 | CC(C)(C)NC(=O)C(c1cccs1)N(C(=O)c1csnn1)c1cccc(F)c1 (stereo not given) | – | inconclusive: 114% [activator] [at 1.84 µM]
24 | NS(=O)(=O)c1ccc2nc(-c3ccccc3)c(-c3ccccc3)nc2c1 | inactive | –

Row | Structure (SMILES) | Potency | re-replication activation
25 | O=C(Nc1ccccc1)C1=C[C@@H](C2CC2)C[C@@H](OCc2ccc(CO)cc2)O1 | inconclusive: 6.51 µM [activator, single point] | –
26 | CCCCCCCC(=O)NNC(=O)c1c(O)c2ccccc2n(CC)c1=O | inconclusive: 29.1 µM [activator, single point] | –
27 | O=C(Cn1cnc2c(nnn2Cc2ccc(Cl)cc2)c1=O)NCc1ccco1 | inconclusive: 8.2 µM [activator, partial curve] | –
28 | CC(Sc1nnc(COc2ccc(Cl)cc2)n1Cc1ccco1)C(=O)N1CCNC1=O (stereo not given) | inactive | –
29 | CN(C)c1ccc(CN2CCCCC2)cc1 | inconclusive: 18.4 µM [activator, partial curve, poor fit] | –
30 | NCC(O)CN(c1ccccc1)c1ccccc1 (stereo not given) | inconclusive: 18.4 µM [activator, single point] | –
31 | Cc1cccc(C)c1NC(=O)/C(C#N)=C/c1ccsc1 | active: 1.46 µM | –
32 | CCOc1cc(N2CCOCC2)c(OCC)cc1NC(=O)COc1ncnc2ccccc12 | inactive | –
33 | COc1ccc(-c2nc3cnccn3c2NC2CCCCC2)cc1-c1cccc(Cl)c1 | active: 5.17 µM | –
34 | Cc1ccc2nc(-c3ccc4c(c3)OCCO4)cn2c1 | active: 2.59 µM | –
35 | Cc1ccc(NC(=O)CN2C(=O)c3ccccc3C2=O)c(C)c1 | inconclusive: 0.116 µM [activator, full curve] | –
36 | Cc1ccc(S(=O)(=O)NCCC(=O)OCC(=O)N(Cc2ccccc2)C(C)(C)C)cc1 | inactive | –
37 | CCCCC(O)(c1ccc(CC)cc1)C(CN1CCOCC1)c1ccccc1 (stereo not given) | inconclusive: 20.6 µM [activator, single point] | –
38 | COc1ccccc1OCCOCCOc1c(C)cc(C)cc1Br | inconclusive: 18.4 µM [activator, single point] | –
39 | CC(=O)OCCN(C)c1cc(SC(C)C)c2nonc2c1[N+](=O)[O-] | inconclusive: 29.1 µM [activator, single point] | –
40 | O=C(CC1(O)C(=O)Nc2ccccc21)c1ccccc1O (stereo not given) | inactive | –
41 | COc1ccc(OCC(=O)Nc2c3c(nn2C(C)(C)C)CS(=O)(=O)C3)cc1 | inconclusive: 23.1 µM [activator, partial curve, poor fit] | –
42 | O=C(/C=C/c1cccc([N+](=O)[O-])c1)c1ccco1 | inconclusive: 25.9 µM [activator, partial curve, poor fit] | –
43 | CCC(Sc1nc2ccsc2c(=O)n1-c1ccc(Cl)c(C)c1)C(=O)NCc1ccco1 (stereo not given) | inactive | –
44 | O=C(COc1ccccc1-c1ccccc1)NN=C1CCCC1 | inconclusive: 29.1 µM [activator, single point] | –
45 | O=C1[C@@H]2Cc3c([nH]c4ccccc34)[C@@H](c3ccccc3)N2C(=O)[C@@H]2Cc3c([nH]c4ccccc34)[C@@H](c3ccccc3)N12 | active: 23.1 µM | –
46 | CCS(=O)(=O)c1ccc(-c2csc(-c3ccccc3Cl)n2)c(Cl)c1Cl | inactive | –
47 | COCCCNC(=S)N(CCO)Cc1cc2cc3c(cc2[nH]c1=O)OCCO3 | inactive | –
48 | Cc1ccc(C(C)C)c(OCC(=O)Nc2sc3c(c2C#N)CC(C)(C)NC3(C)C)c1 | inconclusive: 29.1 µM [activator, single point] | –

Row | Structure (SMILES) | Potency | re-replication activation
49 | COC(=O)c1ccccc1NC(=O)Cn1cnc2cc(C)c(C)cc21 | inconclusive: 23.1 µM [activator, single point] | –
50 | COc1ccc(/C=C2\N=C(C)N(c3ccc4ccccc4c3)C2=O)cc1OC | inconclusive: 29.1 µM [activator, single point] | –
51 | COc1ccc(Cl)cc1C(=O)Nc1cccnc1 | inconclusive: 29.1 µM [activator, single point] | –
52 | Cn1c(=O)[nH]c(=O)c2c1nc(N1CCCCC1)n2CC(O)COc1ccccc1 (stereo not given) | inconclusive: 0.103 µM [activator, full curve, poor fit] | –
53 | COc1ccc(/C=C2\SC(=S)N(NS(=O)(=O)c3ccc(C)cc3)C2=O)c(OC)c1 | inactive | –
54 | Cc1cccc(N2CN(Cc3ccco3)CNC2=S)c1C | inactive | –
55 | OCC1OC(n2cnc3c(=S)nc[nH]c32)C(O)C1O (stereo not given) | inactive | –
56 | FC(F)(F)c1cc(-c2ccco2)nc(NCc2ccc(Cl)cc2)n1 | inconclusive: 32.6 µM [activator, partial curve, poor fit] | –
57 | Cc1ccc(NCCC(=O)c2cccc([N+](=O)[O-])c2)c(C)c1 | inconclusive: 3.66 µM [activator, full curve] | –
58 | COc1ccc(NC2CCCN(C(=O)Cn3ccc(C)n3)C2)cc1OC (stereo not given) | inactive | –
59 | CCN(CC)CCC(=O)Nc1cccc2c1C(=O)c1ccccc1C2=O | inconclusive: 18.4 µM [activator, single point] | –
60 | CN(NC(=O)c1ccccc1)c1nc2ccccc2nc1C(F)(F)F | inconclusive: 18.4 µM [activator, single point] | –
61 | COc1ccccc1NC(=O)c1cc(Sc2nncn2C)nc2ccccc12 | inactive | –
62 | COc1cc(OC)c2c(c1)S(=O)(=O)C(c1ccccc1)=C2N | inconclusive: 0.058 µM [activator, full curve, poor fit] | –
63 | CCS(=O)(=O)c1nc(S(=O)(=O)c2ccc(C)cc2)c(NCCN2CCOCC2)s1 | inconclusive: 29.1 µM [activator, single point] | –
64 | CCOC(=O)CSC1=NC(=O)/C(=C/c2ccc(OC)cc2)S1 | inconclusive: 12.6 µM [activator, partial curve, poor fit] | –
65 | COc1ccc(CN(C)CC(=O)Nc2ccccc2-c2ccccc2)c(OC)c1 | inconclusive: 18.4 µM [activator, single point] | –
66 | COc1cc(C(=O)N/N=C(\C)c2ccc3c(c2)OCO3)cc(OC)c1OC | active: 2.59 µM | –
67 | CCOC(=O)C1CCN(c2nc(-c3ccc(C)cc3)nc3ccccc23)CC1 | inconclusive: 20.6 µM [activator, single point] | –
68 | CCOC(=O)c1ccc(NC(=O)Nc2ccc(Cl)cn2)cc1 | inactive | –
69 | O=[N+]([O-])c1ccc2[nH]c(=S)sc2c1 | inactive | –
70 | Cc1ccc(C2=NN(C(=O)CSc3nccn3C)C(c3ccco3)C2)cc1 (stereo not given) | active: 11.6 µM | –

Quoted from the listing.
Value for COc1ccccc1NC(=O)c1cc(Sc2nncn2C)nc2ccccc12 under Potency: inactive
Value for COc1ccc(NC2CCCN(C(=O)Cn3ccc(C)n3)C2)cc1OC (stereo not given) under Potency: inactive
Value for CCS(=O)(=O)c1nc(S(=O)(=O)c2ccc(C)cc2)c(NCCN2CCOCC2)s1 under Potency: inconclusive: 29.1 µM [activator, single point]
Value for Cc1ccc(NCCC(=O)c2cccc([N+](=O)[O-])c2)c(C)c1 under Potency: inconclusive: 3.66 µM [activator, full curve]
